The source of these data is the supplement of paper PMC12009310.

Molecules are shown by their SMILES. Counter-ions that a name gives are not always drawn. ± gives the standard deviation of the averaged measurements. Some of the results follow. Plates or batches differ in their baseline, so values are only roughly comparable.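 The cells are a mouse kidney inner medullary collecting duct line, silenced either for the ciliary gene Rpgrip1l or with a non-targeting control siRNA.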

The test system of this test is mIMCD3. The test is described as follows: robust z score of cell number vs plate controls; higher = more cells (less cytotoxic). The following applies: 10 µM; 48 h; siRNA: siRpgrip1l.
In the case of `O=C(O)C1=CCCN(CCOC(c2ccc(C(F)(F)F)cc2)c2ccc(C(F)(F)F)cc2)C1` [CI 966 hydrochloride], the “robust z score of cell number” value is -49.7 ± 40.

With `CN(C)CCN(C)CCc1ccc(Cl)c(Cl)c1` [BD 1047 dihydrobromide], the “robust z score of cell number” value was -29.79 ± 0.12. As for `O=C1NC(=O)c2c1c1c3ccccc3[nH]c1c1[nH]c3ccccc3c21` [Arcyriaflavin A], the figure is -14.9 ± 9.1; as for `CNCCc1cnc[nH]1` [N α-Methylhistamine dihydrochloride], 0.343 ± 2.7.

Regarding `COc1cc2c(cc1O)C(CCc1ccc(Cl)cc1)N(C)CC2` (stereo unspecified), the “robust z score of cell number” value was -20 ± 10. In the case of `CN1[C@@H]2CC[C@H]1CC(OC(=O)N1Cc3ccccc3NC1=O)C2` (stereo partly specified) [DAU 5884 hydrochloride], the “robust z score of cell number” value was -1.62 ± 0.64. With `N#Cc1ccc(N2CCN(C(=O)COc3ccc4[nH]cc(CCN)c4c3)CC2)cc1` [Donitriptan hydrochloride], the “robust z score of cell number” value is -49.3 ± 66. As for `O=C1Nc2cc(Cl)c(Cl)cc2N2CCNCC12` (stereo unspecified), the figure is -3.45 ± 3.8; as for `NC(=S)N/N=C/c1coc2ccccc2c1=O.[Cl][Cu][Cl]`, -5.52 ± 4.4.

For the compound `COc1ccc(CCN2CCC(Nc3nc4ccccc4n3Cc3ccc(F)cc3)CC2)cc1` [Astemizole], the “robust z score of cell number” value was -31.5 ± 30. The figure for `CCN1C[C@]2(COC(=O)c3ccccc3N3C(=O)C[C@H](C)C3=O)CC[C@H](OC)[C@@]34[C@@H]5C[C@H]6[C@H](OC)[C@@H]5[C@](O)(C[C@@H]6OC)[C@](O)([C@@H](OC)[C@H]23)[C@@H]14` [Methyllycaconitine citrate] is -11.7 ± 12; for `CC(C)C[C@@H](N)C1(c2ccc(Cl)cc2)CCC1` it is -9.65 ± 6.2; for `Oc1cc2c(cc1O)[C@H]1c3ccccc3CN[C@@H]1CC2` (racemic) [Dihydrexidine hydrochloride] it is -17.2 ± 3.2. As to `Oc1ccc2c3c1O[C@H]1c4oc5ccccc5c4C[C@@]4(O)[C@@H](C2)N(CC2CC2)CC[C@]314` [Naltriben mesylate], the “robust z score of cell number” value was -4.77 ± 2.8. As for `Oc1ccc2c3c1O[C@H]1c4[nH]c5ccccc5c4C[C@@]4(O)[C@@H](C2)N(CC2CC2)CC[C@]314` [Naltrindole hydrochloride], the figure is -3.72 ± 1.1. For `c1ccc(C2CC2)c(OCC2=NCCN2)c1` [Cirazoline hydrochloride], the “robust z score of cell number” value is -3.99 ± 2. The figure for `Cc1cc(SCc2sc(-c3ccc(C(F)(F)F)c(F)c3)nc2C)ccc1OCC(=O)O` is -40.8 ± 27; for `O=C1Nc2ccccc2C2(CCN(CCc3ccc(C(F)(F)F)cc3)CC2)O1` it is -41.1 ± 27; for `C[C@H](N)Cc1cnc[nH]1` [(S)-(+)-a-Methylhistamine dihydrobromide] it is 4.17 ± 4.5. `CC(=O)NCCc1c[nH]c2ccccc12` [N-Acetyltryptamine]: the “robust z score of cell number” value was -8.93 ± 11. As for `CC(C)(C)NCC(O)COc1cccc2[nH]c(C#N)cc12` (stereo unspecified) [Cyanopindolol hemifumarate], the figure is -50.2 ± 66; as for `CC(C)n1cnc2c(C(=O)N[C@H]3CN4CCC3CC4)cc(Cl)cc21`, -17.1 ± 0.89.

On to `C[C@@]12N[C@@H](Cc3ccccc31)c1ccccc12` [(-)-MK 801 maleate], for which the “robust z score of cell number” value is -2.32 ± 0.76. In the case of `CN1Cc2ccccc2[C@@H]2c3cccc4[nH]cc(c34)C[C@H]21`, the “robust z score of cell number” value was -281 ± 200. The figure for `Oc1ccc2c3c1O[C@H]1c4[nH]c5c(c4C[C@@]4(O)[C@@H](C2)N(CC2CC2)CC[C@]314)C[C@@]1(O)[C@H]2Cc3ccc(O)c4c3[C@@]1(CCN2CC1CC1)[C@H]5O4` [nor-Binaltorphimine dihydrochloride] is 12.2 ± 16; for `CC[C@@]1(O)C(=O)OCc2c1cc1n(c2=O)Cc2cc3ccccc3nc2-1` [Camptothecin] it is -60 ± 51; for `CN1c2ccccc2C(NCCCCCCC(=O)O)c2ccc(Cl)cc2S1(=O)=O` (stereo unspecified) [Tianeptine] it is -3.66 ± 0.6. The figure for `N=C(N)NN` [Aminoguanidine hydrochloride] is -3.59 ± 0.093; for `Nc1ccncc1` [4-Aminopyridine] it is 1.32 ± 6.8.

`CC(C(=O)OC1CC2CCC(C1)N2C)c1ccc(Br)cc1` (stereo unspecified) [PG-9 maleate]: the “robust z score of cell number” value was -35.3 ± 4.7. The figure for `COc1ccc2[nH]cc(C3=CCNCC3)c2c1` is -7.59 ± 1.1; for `O=C1NCN(c2ccccc2)C12CCN(CC1COc3ccccc3O1)CC2` (stereo unspecified) [Spiroxatrine] it is -5.08 ± 7.8; for `CN(C(=O)Cc1ccc(Cl)c(Cl)c1)[C@H](CN1CCCC1)c1ccccc1` [ICI-199,441 hydrochloride] it is -40.8 ± 3.1.

Take `O=c1[nH]oc2c1CCNC2` [THIP hydrochloride]: the “robust z score of cell number” value turned out to be 0.148 ± 0.88. The figure for `CN(C)c1ccc(/C=C2\CCCN=C2c2cccnc2)cc1` [DMAB-anabaseine dihydrochloride] is 0.276 ± 3.5; for `CC(=O)C1=C(O)[C@@H]2[C@H]3c4c[nH]c5cccc(c45)C[C@H]3C(C)(C)N2C1=O` [Cyclopiazonic Acid] it is -33.7 ± 29.
